Drawing on PMC3804392, this text covers binding for three substances.

Amino acid sequences for entries named in this document (tags omitted). A change or cut given only in a name is not applied to a line headed by its entry. Chains listed by the source or under a name are the forms on record and can include a tag or linker. Residues count along the entry.
UniProt Q02156: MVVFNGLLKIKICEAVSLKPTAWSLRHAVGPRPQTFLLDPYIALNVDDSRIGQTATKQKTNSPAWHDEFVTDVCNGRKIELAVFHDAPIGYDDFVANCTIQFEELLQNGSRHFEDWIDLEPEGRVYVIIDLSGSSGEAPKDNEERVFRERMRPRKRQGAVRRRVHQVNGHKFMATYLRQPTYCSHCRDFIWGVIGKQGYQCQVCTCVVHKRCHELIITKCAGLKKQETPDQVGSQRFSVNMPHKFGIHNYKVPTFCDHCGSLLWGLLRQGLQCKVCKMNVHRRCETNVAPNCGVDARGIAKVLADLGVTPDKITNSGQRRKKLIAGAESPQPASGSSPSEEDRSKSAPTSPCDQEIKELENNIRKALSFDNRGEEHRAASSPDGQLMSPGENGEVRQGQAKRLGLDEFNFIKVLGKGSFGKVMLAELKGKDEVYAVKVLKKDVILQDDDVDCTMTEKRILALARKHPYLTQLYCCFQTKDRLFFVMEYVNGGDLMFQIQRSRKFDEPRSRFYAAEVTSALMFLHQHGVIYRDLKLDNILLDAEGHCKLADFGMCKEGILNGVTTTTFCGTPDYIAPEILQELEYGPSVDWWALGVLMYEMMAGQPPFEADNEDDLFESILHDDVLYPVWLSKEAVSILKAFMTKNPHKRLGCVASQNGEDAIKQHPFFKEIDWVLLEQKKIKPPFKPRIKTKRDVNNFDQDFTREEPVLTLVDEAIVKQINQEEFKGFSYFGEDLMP
Recombinant His-tagged PKCε-kinase domain: residues 408-668 of Q02156
UniProt P61586: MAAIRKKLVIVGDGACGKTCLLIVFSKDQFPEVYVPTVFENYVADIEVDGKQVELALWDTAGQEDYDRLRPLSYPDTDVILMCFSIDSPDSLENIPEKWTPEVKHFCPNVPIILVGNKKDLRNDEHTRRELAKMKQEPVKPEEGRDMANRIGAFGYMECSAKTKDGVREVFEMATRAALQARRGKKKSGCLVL

No constants are given. Whether binding was seen depends on the method and setting. For some of these results: In cells and extracts the contact can be indirect. Some entries that bind do so weakly or less than the wild type.

Experiment [1] deals with Recombinant His-tagged PKCε-kinase domain (UniProt Q02156). As to the kind of experiment: co-IP; recombinant His-tagged PKCε-kinase domain and GST tagged-RhoA incubated in kinase buffer with phosphatidylserine and diacylglycerol, 30 minutes at 25°C; precipitated with agarose-conjugated anti-His, anti-RhoA or nonspecific IgG; blot with anti-His and anti-RhoA; both purified.

Experiment [2] deals with Recombinant PKCε (protein kinase Cε) (UniProt Q02156). Put plainly: co-IP; recombinant PKCε and recombinant RhoA incubated in ATP-free kinase buffer with phosphatidylserine and diacylglycerol, 30 minutes at 25°C; precipitated with agarose-conjugated anti-PKCε antibody (or IgG) at 4°C overnight; blot with anti-RhoA; both purified.
The target of another experiment is mCherry-PKCε (human) (UniProt Q02156). As to the kind of experiment: FRET or BRET; quantitative stoichiometric FRET in live HEK293 cells cotransfected with the mCherry (acceptor) and eGFP (donor) fusions; images before and every 15 seconds after PMA (100 nM) for 12.5 minutes.
For experiment [3], the target named is mCherry-PKCε/K437R (human) (UniProt Q02156). The description is as above.

Turning to “Recombinant GST tagged-RhoA (from UniProt P61586 1-193)”, the binding result in experiment [1] is “binds”.
For “Recombinant RhoA (from UniProt P61586 1-193)”, the binding result in experiment [2] is reported as “binds”.
As to eGFP-RhoA (from UniProt P61586 1-193), the binding entry (with mCherry-PKCε (human); in experiment [3]) was “binds” throughout.
